Measurements from patent publication US7189832 (University of California, dated 2007).
No constants are given. Whether binding was seen depends on the method and setting. In cells and extracts the contact can be indirect. Some binding calls cover weakened binding; strength is not graded here.

Biological target: T1, endogenous IKK-α (human) (UniProt O15111)
T1 sequence (looked up): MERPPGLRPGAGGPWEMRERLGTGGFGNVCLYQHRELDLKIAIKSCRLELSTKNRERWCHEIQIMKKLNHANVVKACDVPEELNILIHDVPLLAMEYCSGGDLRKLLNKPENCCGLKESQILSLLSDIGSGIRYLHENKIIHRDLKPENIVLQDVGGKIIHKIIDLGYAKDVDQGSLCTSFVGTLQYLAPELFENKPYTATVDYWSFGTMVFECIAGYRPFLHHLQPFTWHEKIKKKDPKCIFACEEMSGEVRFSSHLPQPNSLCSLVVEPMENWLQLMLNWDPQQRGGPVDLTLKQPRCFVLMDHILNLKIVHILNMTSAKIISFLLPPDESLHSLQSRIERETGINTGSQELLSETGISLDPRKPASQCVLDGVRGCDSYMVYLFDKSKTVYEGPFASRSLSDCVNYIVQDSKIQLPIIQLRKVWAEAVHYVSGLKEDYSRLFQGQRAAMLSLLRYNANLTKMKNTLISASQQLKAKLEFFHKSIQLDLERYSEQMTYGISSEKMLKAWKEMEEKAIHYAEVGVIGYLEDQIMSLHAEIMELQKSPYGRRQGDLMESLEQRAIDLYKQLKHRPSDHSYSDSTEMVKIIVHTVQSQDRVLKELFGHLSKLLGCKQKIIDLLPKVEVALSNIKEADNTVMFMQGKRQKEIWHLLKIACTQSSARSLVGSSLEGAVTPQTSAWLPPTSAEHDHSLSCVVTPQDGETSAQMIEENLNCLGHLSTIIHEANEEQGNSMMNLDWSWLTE
Assay: co-purification on anti-IKK-α immunoaffinity column, immunoblot

B1: endogenous IKK-β (enzyme, human, UniProt O14920 1-756, looked up)
chain: MSWSPSLTTQTCGAWEMKERLGTGGFGNVIRWHNQETGEQIAIKQCRQELSPRNRERWCLEIQIMRRLTHPNVVAARDVPEGMQNLAPNDLPLLAMEYCQGGDLRKYLNQFENCCGLREGAILTLLSDIASALRYLHENRIIHRDLKPENIVLQQGEQRLIHKIIDLGYAKELDQGSLCTSFVGTLQYLAPELLEQQKYTVTVDYWSFGTLAFECITGFRPFLPNWQPVQWHSKVRQKSEVDIVVSEDLNGTVKFSSSLPYPNNLNSVLAERLEKWLQLMLMWHPRQRGTDPTYGPNGCFKALDDILNLKLVHILNMVTGTIHTYPVTEDESLQSLKARIQQDTGIPEEDQELLQEAGLALIPDKPATQCISDGKLNEGHTLDMDLVFLFDNSKITYETQISPRPQPESVSCILQEPKRNLAFFQLRKVWGQVWHSIQTLKEDCNRLQQGQRAAMMNLLRNNSCLSKMKNSMASMSQQLKAKLDFFKTSIQIDLEKYSEQTEFGITSDKLLLAWREMEQAVELCGRENEVKLLVERMMALQTDIVDLQRSPMGRKQGGTLDDLEEQARELYRRLREKPRDQRTEGDSQEMVRLLLQAIQSFEKKVRVIYTQLSKTVVCKQKALELLPKVEEVVSLMNEDEKTVVRLQEKRQKELWNLLKIACSKVRGPVSGSPDSMNASRLSQPGQLMSQPSTASNSLPEPAKKSEELVAEAHNLCTLLENAIQDTVREQDQSFTALDWSWLQTEEEEHSCLEQAS
binding: binds
